{"source": "PubChem BioAssay AID493246 (Drosophila RNAi Screening Center, 2011)", "test": "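Genes fly cells need to grow and stay alive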 (primary screen)", "cells": "Drosophila Kc and S2R+ cells", "reagents": "long dsRNA against Drosophila genes", "measured": "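Raw, unnormalised count of remaining cells in each well; per-plate z-scores of cell number underlie the calls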", "direction": "Kc cell number and S2R+ cell number: higher = more cells remaining", "call rule": "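Counted as a hit if cell number falls by a z-score of at least 3 within its plate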", "note": "The screen tested about 21,000 reagents; this is an unselected part of those that have a named target and a result. Of all reagents, 429 (2%) were called active. 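Values are raw and not normalised between plates; calls rest on per-plate z-scores that were not deposited.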 Not stated in the record: the amount of reagent, the time to read-out."}
{"target gene": "Mvl", "dsRNA": "DRSC16752", "Kc cell number, rep 1": 1.47e6, "Kc cell number, rep 2": 1.59e6, "S2R+ cell number, rep 1": 1.10e6, "S2R+ cell number, rep 2": 1.20e6, "outcome": "inactive"}
{"target gene": "holn1", "dsRNA": "DRSC02827", "Kc cell number, rep 1": 1.37e6, "Kc cell number, rep 2": 1.44e6, "S2R+ cell number, rep 1": 1.23e6, "S2R+ cell number, rep 2": 1.34e6, "outcome": "inactive"}
{"target gene": "Syp", "dsRNA": "DRSC13444", "Kc cell number, rep 1": 1.59e6, "Kc cell number, rep 2": 1.58e6, "S2R+ cell number, rep 1": 1.08e6, "S2R+ cell number, rep 2": 1.12e6, "outcome": "inactive"}
{"target gene": "Syp", "dsRNA": "DRSC15286", "Kc cell number, rep 1": 1.47e6, "Kc cell number, rep 2": 1.51e6, "S2R+ cell number, rep 1": 1.13e6, "S2R+ cell number, rep 2": 1.22e6, "outcome": "inactive"}
{"target gene": "CG2126", "dsRNA": "DRSC15418", "Kc cell number, rep 1": 1.58e6, "Kc cell number, rep 2": 1.61e6, "S2R+ cell number, rep 1": 1.05e6, "S2R+ cell number, rep 2": 1.21e6, "outcome": "inactive"}
{"target gene": "CG9636", "dsRNA": "DRSC16529", "Kc cell number, rep 1": 1.57e6, "Kc cell number, rep 2": 1.61e6, "S2R+ cell number, rep 1": 1.25e6, "S2R+ cell number, rep 2": 1.27e6, "outcome": "inactive"}
{"target gene": "Vti1b", "dsRNA": "DRSC16283", "Kc cell number, rep 1": 1.68e6, "Kc cell number, rep 2": 1.64e6, "S2R+ cell number, rep 1": 1.31e6, "S2R+ cell number, rep 2": 1.36e6, "outcome": "inactive"}
{"target gene": "Vti1b", "dsRNA": "DRSC16284", "Kc cell number, rep 1": 1.33e6, "Kc cell number, rep 2": 1.31e6, "S2R+ cell number, rep 1": 1.04e6, "S2R+ cell number, rep 2": 1.15e6, "outcome": "inactive"}
{"target gene": "esc", "dsRNA": "DRSC03529", "Kc cell number, rep 1": 1.23e6, "Kc cell number, rep 2": 1.28e6, "S2R+ cell number, rep 1": 1.15e6, "S2R+ cell number, rep 2": 1.23e6, "outcome": "inactive"}
{"target gene": "CG17010", "dsRNA": "DRSC02559", "Kc cell number, rep 1": 1.38e6, "Kc cell number, rep 2": 1.41e6, "S2R+ cell number, rep 1": 1.17e6, "S2R+ cell number, rep 2": 1.24e6, "outcome": "inactive"}
{"target gene": "CG40282 (retired record)", "dsRNA": "DRSC07814", "Kc cell number, rep 1": 1.31e6, "Kc cell number, rep 2": 1.30e6, "S2R+ cell number, rep 1": 9.09e5, "S2R+ cell number, rep 2": 1.08e6, "outcome": "inactive"}
{"target gene": "ome", "dsRNA": "DRSC09322", "Kc cell number, rep 1": 1.49e6, "Kc cell number, rep 2": 1.58e6, "S2R+ cell number, rep 1": 1.09e6, "S2R+ cell number, rep 2": 1.25e6, "outcome": "inactive"}
{"target gene": "ome", "dsRNA": "DRSC10282", "Kc cell number, rep 1": 1.32e6, "Kc cell number, rep 2": 1.38e6, "S2R+ cell number, rep 1": 1.18e6, "S2R+ cell number, rep 2": 1.32e6, "outcome": "inactive"}
{"target gene": "ome", "dsRNA": "DRSC11380", "Kc cell number, rep 1": 1.43e6, "Kc cell number, rep 2": 1.39e6, "S2R+ cell number, rep 1": 1.20e6, "S2R+ cell number, rep 2": 1.33e6, "outcome": "inactive"}

Just “S2R+ cell number, rep 1”, for 2 of the entries above:
CG40282 (retired record) [DRSC07814]: 9.09e5
ome [DRSC09322]: 1.09e6
